# Values joined by “and” are separate entries in the source; they are usually repeats but may differ in a detail not shown here. Identical values can stand only once. The list shows a part of the results. Single values are uncertain here, since repeats match poorly.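 HEK293T cells were given each compound shortly before transfection with a reporter in which red mCherry is followed by the SARS-CoV-2 frameshift element and then GFP in the −1 frame, so GFP appears only after frameshifting.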
# System: HEK293T
# Assay: percent viability (nuclei count) relative to control; higher = more viable cells
# Conditions: 10 µM; 24 h
row,Compound,percent viability
1,O=C1NC(c2ccccc2)(c2ccccc2)C(=O)N1COP(=O)(O)O [fosphenytoin],141%
2,CC1=Nc2ccc(Cl)cc2S(=O)(=O)N1 [Diazoxide],141%
3,COc1cc([S+](C)[O-])ccc1-c1nc2cccnc2[nH]1 (stereo not given) [sulmazole],207%
4,CCC(C)n1ncn(-c2ccc(N3CCN(c4ccc(OCC5COC(Cn6cncn6)(c6ccc(Cl)cc6Cl)O5)cc4)CC3)cc2)c1=O (stereo not given),74.1%
5,NC(N)=O,152%
6,CN(c1nccc(=O)[nH]1)C1CCN(c2nc3ccccc3n2Cc2ccc(F)cc2)CC1 [mizolastine],149%
7,Nc1ccc(S(=O)(=O)c2cnc(N)s2)cc1 [thiazosulfone],110%
8,C[C@]12CC[C@@H]3c4ccc(O)cc4CC[C@H]3[C@@H]1C[C@@H](O)[C@@H]2O,123%
9,O=c1cc(CN2CCOCC2)c2ccc(O)cc2o1 [oxazorone],161%
10,Cc1c(NC(=O)c2cccnc2)c(=O)n(-c2ccccc2)n1C [nifenazone],365%
11,CC1(C)C[C@@H]1C(=O)N/C(=C\CCCCSC[C@H](N)C(=O)O)C(=O)O [cilastatin],162%
12,CCN(CC)CCc1nc(-c2ccccc2)no1,340%
13,O=C(O)/C=C/c1ccc(Cn2ccnc2)cc1 [ozagrel],243%
14,O=C(O)CCCc1ccccc1,176%
15,CCCNS(=O)(=O)Nc1ncnc(OCCOc2ncc(Br)cn2)c1-c1ccc(Br)cc1,301%
16,Cc1onc(NS(=O)(=O)c2ccc(N)cc2)c1C [sulfatroxazole],370%
17,COC(=O)c1ccc(=O)c2nc3c(=CO)c(O)cc(=O)c3[nH]c12 [Lomofungin],249%
18,CCC[C@@H]1C[C@@H](C(=O)N[C@@H]([C@H]2O[C@H](SC)[C@H](O)[C@@H](O)[C@H]2O)[C@@H](C)O)N(C)C1 [Lincomycin],174%
19,CC=CC(=O)N(CC)c1ccccc1C,240%
20,CC(CCc1ccc(O)cc1)NCC(O)c1ccc(O)cc1 (stereo not given),131%

row,Compound,percent viability
1,COc1ccc(Cc2cnc(N)nc2N)cc1OC [diaveridine],254%
2,NC(N)=NCCCC(N)C(=O)O (stereo not given),181%
3,CCCC(CCC)C(=O)O [valproate semisodium],188%
4,O.O.O.O.O.O.O.O.O.O.O.O.O.O.O.O.O.O.O.O.O=S(=O)([O][Al])OC[C@H]1O[C@@](COS(=O)(=O)[O][Al])(O[C@H]2O[C@H](COS(=O)(=O)[O][Al])[C@@H](OS(=O)(=O)[O][Al])[C@H](OS(=O)(=O)[O][Al])[C@H]2OS(=O)(=O)[O][Al])[C@@H](OS(=O)(=O)[O][Al])[C@@H]1OS(=O)(=O)[O][Al].[Al],179%
5,OCCc1ccccc1,167%
6,NS(=O)(=O)Cc1noc2ccccc12 [zonisamide],216%
7,CC(C)(Oc1ccc(CCNC(=O)c2ccc(Cl)cc2)cc1)C(=O)O [bezafibrate],284% and 119%
8,c1ccc2c(c1)cc1n2CCCNC1 [azepindole],18.6%
9,CC(C(=O)O)c1ccc2c(c1)Cc1ccccc1-2 (stereo not given) [cicloprofen],236%
10,Cc1cc(O)c(Cl)c(C)c1Cl [dichloroxylenol],155%
11,NS(=O)(=O)c1ccc(NC(=O)OCCO)cc1 [sulocarbilate],118%
12,CC(=O)Oc1ccc(C(c2ccc(OC(C)=O)cc2)c2ccccn2)cc1 [bisacodyl],190% and 183%
13,"CN(C)[C@@H]1C(=O)C(C(N)=O)=C(O)[C@@]2(O)C(=O)C3=C(O)c4c(O)ccc(Cl)c4[C@@H](O)[C@H]3C[C@@H]12 [Demeclocycline, Declomycin]",341%
14,CN(C)CC/C=C1/c2ccccc2COc2ccc(CC(=O)O)cc21 [Olopatadine],196%
15,Nc1c(CC(=O)O)cccc1C(=O)c1ccc(Br)cc1 [bromfenac],228%
16,C[C@@H](NCCCc1cccc(C(F)(F)F)c1)c1cccc2ccccc12 [cinacalcet],324%
17,CC(C)C1O[C@H](CN)[C@@H](CN)O1.O=C([O-])CC(=O)[O-].[Pt+2] [eptaplatin],250%
18,COc1cc(N)c(Cl)cc1C(=O)NC1CCN(Cc2ccccc2)CC1 [clebopride],158%
19,C[N+]1(C)CCC(=C(c2ccccc2)c2ccccc2)CC1 [diphemanil metilsulfate],201%
20,CC1(C)O[C@@H]2C[C@H]3[C@@H]4C[C@H](F)C5=CC(=O)C=C[C@]5(C)[C@@]4(F)[C@@H](O)C[C@]3(C)[C@]2(C(=O)CO)O1 [fluocinolone acetonide],254% and 147%

# — the supplement of paper PMC8256030
